From patent US6358738
These are yes or no findings as the source states them, for the method shown. Some binding calls cover weakened binding; strength is not graded here.

Sequences of proteins named here, by UniProt entry; tags and fusion partners are left off. A change or cut given only in a name is not applied to a line headed by its entry.
UniProt Q07832: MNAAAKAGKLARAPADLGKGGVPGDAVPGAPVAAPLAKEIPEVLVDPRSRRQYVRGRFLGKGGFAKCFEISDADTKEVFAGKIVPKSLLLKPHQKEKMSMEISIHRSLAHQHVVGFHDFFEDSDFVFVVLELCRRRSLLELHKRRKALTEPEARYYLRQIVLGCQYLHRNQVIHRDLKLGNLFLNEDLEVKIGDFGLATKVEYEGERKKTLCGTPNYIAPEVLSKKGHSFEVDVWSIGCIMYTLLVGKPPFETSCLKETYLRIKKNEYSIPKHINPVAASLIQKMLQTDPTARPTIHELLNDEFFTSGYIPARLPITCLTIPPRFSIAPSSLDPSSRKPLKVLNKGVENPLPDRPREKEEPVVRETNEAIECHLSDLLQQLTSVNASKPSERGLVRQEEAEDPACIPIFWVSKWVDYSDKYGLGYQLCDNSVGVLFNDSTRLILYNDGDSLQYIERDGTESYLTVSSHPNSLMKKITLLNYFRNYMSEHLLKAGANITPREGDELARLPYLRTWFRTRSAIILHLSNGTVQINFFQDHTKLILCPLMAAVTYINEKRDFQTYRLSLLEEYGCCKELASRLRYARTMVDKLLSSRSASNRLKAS
UniProt O35254: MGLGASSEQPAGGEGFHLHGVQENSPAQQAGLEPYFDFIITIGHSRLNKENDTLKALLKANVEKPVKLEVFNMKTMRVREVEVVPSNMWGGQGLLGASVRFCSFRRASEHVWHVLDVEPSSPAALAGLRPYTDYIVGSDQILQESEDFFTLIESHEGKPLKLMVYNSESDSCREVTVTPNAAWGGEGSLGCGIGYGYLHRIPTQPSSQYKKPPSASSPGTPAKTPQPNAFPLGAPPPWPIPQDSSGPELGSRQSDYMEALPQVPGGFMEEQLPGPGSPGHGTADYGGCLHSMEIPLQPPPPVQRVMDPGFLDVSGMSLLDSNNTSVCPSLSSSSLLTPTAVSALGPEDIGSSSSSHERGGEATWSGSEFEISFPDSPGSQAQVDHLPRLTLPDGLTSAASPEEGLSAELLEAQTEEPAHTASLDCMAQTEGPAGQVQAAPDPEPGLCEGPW

Experiments:
[1] = target: Plk 323-499 (two-hybrid bait, wild-type polo box) (murine (mammalian Plk)) (UniProt Q07832); assay: yeast two-hybrid screen
[2] = target: Plk 1-400 (two-hybrid bait) (murine (mammalian Plk)) (UniProt Q07832); assay: yeast two-hybrid screen
[3] = target: Plk 323-499 (two-hybrid bait, wild-type polo box) (murine (mammalian Plk)) (UniProt Q07832); assay: yeast two-hybrid screen, mouse embryo cDNA library
[4] = target: Plk 1-400 (two-hybrid bait) (murine (mammalian Plk)) (UniProt Q07832); assay: yeast two-hybrid screen, mouse embryo cDNA library

binding [1]: binds
binding [2]: binds
binding [3]: binds
binding [4]: binds
Substance: GRASP65 (Golgi Reassembly Stacking Protein), amino acid residues 6-114, two-hybrid prey clone (from UniProt O35254 6-114)
